Test results from publication PMC9690818.
For at least one entry, the source does not settle the construct or the ends of the probe.

Target: glycated albumin (GA) (UniProt P02768)
Test: electrochemical aptasensor (CV/EIS), immobilized aptamer
Details: linear 1-10000 ug/mL, LOD 0.40 ug/mL (not a Kd), ferri/ferrocyanide redox probe; 5' amino (NH2), coupled to polydopamine nanoparticles on carbon electrode; 1 uM aptamer immobilized on PDA-NP/SPCE, 0.1 M ethanolamine block; readout 5 mM K3[Fe(CN)6], 0.1 M KCl in 1X PBS pH 7.4; temperature not given; commercial protein; single-stranded DNA

Q: Does “GGTGGCTGGAGGGGGCGCGAACGTTTTTTTTTT [GA aptamer]” bind?
A: binds
